This is one part of the list.
How the values were obtained:
Experiment in all cases: log2 fold change, soluble protein after heating vs DMSO (PISA); higher = thermal stabilisation; K562 cells, 10 uM, 30 min; active = over 0.2 and 3.5 SD of the protein, either way, in both replicates (recomputed)
[1] = compound: CC1=C(C=C(C=C1)NC(=O)C2=CC(=CC=C2)C(C)(C)C#N)NC3=CC4=C(C=C3)N=CN(C4=O)C
In short: (§1)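 K562 cells at 2×10^6 cells/mL were treated with 10 μM compound for 30 min. Aliquots were heated for 3 min across 48°C-58°C, pooled, and extracted in PBS with 0.5% NP-40 at 4°C; soluble protein was the supernatant after 21,000xg for 90 min. Soluble protein was quantified by TMTpro 16plex LC-MS/MS with channel sums equalised, and reported as log2 fold change in thermal stability against DMSO controls, with values from duplicates.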

The chains behind the UniProt entries cited, without tags or fusion partners. Where a name states a change or a piece, a line headed by the entry shows the natural chain unless it says otherwise.
UniProt Q9NP55: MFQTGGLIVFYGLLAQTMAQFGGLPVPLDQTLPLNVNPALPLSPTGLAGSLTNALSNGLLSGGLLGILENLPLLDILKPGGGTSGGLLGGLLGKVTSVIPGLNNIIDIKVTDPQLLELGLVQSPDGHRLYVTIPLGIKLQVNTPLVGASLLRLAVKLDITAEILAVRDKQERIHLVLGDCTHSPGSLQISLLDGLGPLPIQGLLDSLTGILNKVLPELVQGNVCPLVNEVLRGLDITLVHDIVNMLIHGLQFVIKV
UniProt Q6PGQ7, whole entry, looked up: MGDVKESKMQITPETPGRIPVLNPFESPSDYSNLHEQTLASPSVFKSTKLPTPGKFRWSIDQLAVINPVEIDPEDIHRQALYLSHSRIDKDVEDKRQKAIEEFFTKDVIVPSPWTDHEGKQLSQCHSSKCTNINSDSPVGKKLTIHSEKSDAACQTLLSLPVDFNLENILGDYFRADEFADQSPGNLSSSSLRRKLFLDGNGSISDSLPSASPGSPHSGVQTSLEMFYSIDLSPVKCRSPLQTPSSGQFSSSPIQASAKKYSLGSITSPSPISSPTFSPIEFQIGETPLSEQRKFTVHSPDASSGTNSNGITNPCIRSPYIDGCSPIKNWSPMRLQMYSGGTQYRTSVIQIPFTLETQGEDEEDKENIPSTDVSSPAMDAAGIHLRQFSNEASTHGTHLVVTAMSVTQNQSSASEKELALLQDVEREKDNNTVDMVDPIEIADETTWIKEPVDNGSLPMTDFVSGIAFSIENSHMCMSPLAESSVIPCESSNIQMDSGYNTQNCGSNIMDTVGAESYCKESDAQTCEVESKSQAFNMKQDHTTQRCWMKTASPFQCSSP
UniProt P15056, whole entry, looked up: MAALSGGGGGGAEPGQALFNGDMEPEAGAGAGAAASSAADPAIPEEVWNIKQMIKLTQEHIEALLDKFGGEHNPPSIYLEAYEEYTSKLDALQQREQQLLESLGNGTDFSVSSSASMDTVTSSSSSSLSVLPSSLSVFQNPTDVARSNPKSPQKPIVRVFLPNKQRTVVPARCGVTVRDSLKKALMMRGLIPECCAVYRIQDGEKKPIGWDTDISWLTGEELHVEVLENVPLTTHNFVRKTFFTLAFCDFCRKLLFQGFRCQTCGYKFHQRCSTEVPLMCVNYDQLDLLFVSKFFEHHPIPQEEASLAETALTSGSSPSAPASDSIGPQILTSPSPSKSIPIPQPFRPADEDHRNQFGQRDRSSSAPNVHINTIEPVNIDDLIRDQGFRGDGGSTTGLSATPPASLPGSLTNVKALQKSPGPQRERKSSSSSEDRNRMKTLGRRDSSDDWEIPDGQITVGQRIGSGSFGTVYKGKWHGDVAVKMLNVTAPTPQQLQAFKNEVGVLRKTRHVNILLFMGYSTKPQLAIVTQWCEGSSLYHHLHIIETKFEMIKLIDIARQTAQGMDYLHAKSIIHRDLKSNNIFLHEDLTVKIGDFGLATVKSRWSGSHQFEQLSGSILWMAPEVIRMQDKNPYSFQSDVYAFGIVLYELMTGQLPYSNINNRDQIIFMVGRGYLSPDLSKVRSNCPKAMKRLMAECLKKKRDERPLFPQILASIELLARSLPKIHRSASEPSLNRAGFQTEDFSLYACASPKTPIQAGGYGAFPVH
UniProt O75363: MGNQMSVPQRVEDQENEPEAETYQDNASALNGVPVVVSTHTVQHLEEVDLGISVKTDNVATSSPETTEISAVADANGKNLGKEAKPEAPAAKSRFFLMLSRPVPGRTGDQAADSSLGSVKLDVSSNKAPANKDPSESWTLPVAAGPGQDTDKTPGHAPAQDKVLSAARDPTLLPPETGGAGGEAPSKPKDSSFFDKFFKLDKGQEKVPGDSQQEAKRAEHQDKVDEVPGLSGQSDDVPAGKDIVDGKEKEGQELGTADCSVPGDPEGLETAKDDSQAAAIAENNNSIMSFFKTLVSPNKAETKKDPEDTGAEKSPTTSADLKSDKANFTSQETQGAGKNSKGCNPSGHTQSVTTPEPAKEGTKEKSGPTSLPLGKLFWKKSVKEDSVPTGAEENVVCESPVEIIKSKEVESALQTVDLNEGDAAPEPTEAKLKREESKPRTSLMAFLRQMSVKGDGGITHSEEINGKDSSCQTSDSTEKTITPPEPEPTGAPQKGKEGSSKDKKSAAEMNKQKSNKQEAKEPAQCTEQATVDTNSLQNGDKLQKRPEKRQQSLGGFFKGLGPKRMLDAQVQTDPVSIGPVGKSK
UniProt P61769, whole entry, looked up: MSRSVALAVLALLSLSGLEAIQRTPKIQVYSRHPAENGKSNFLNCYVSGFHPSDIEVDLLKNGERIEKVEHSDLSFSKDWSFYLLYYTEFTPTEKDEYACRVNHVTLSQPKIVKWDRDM
UniProt P54132: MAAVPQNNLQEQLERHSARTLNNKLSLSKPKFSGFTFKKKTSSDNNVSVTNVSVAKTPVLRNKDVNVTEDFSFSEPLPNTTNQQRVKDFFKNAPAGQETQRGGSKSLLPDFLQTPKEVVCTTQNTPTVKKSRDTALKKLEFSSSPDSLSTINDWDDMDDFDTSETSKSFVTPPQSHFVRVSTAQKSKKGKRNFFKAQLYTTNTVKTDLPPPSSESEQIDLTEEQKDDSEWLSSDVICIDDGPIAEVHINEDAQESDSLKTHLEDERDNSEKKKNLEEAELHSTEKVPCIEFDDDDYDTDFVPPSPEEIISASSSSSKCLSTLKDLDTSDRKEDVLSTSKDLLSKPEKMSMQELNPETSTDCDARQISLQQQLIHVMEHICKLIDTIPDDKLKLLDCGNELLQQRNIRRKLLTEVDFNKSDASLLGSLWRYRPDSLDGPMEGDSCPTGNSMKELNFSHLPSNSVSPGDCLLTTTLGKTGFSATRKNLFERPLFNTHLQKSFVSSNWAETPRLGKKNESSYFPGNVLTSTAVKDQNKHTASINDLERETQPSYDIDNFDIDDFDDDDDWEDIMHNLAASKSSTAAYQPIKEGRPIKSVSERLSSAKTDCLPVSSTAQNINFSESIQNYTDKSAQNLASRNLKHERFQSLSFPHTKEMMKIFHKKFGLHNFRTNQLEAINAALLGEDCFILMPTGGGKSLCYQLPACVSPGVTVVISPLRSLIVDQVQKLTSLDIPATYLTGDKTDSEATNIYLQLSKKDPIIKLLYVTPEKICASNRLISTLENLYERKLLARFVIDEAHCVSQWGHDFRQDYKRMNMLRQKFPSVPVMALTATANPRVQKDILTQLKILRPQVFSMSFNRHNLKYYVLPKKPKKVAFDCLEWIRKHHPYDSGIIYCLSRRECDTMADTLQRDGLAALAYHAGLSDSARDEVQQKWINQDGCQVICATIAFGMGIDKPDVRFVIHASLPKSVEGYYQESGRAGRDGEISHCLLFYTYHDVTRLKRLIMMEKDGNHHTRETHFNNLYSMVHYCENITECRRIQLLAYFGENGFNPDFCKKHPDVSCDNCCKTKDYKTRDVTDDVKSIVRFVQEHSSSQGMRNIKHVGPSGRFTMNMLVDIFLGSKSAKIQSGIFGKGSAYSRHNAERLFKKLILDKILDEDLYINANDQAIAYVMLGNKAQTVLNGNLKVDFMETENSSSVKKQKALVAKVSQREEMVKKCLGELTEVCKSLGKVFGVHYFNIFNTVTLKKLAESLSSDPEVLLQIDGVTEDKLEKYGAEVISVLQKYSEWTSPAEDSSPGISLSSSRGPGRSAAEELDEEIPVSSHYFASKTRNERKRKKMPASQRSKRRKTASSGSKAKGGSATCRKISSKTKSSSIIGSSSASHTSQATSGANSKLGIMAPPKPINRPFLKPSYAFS
UniProt Q93088: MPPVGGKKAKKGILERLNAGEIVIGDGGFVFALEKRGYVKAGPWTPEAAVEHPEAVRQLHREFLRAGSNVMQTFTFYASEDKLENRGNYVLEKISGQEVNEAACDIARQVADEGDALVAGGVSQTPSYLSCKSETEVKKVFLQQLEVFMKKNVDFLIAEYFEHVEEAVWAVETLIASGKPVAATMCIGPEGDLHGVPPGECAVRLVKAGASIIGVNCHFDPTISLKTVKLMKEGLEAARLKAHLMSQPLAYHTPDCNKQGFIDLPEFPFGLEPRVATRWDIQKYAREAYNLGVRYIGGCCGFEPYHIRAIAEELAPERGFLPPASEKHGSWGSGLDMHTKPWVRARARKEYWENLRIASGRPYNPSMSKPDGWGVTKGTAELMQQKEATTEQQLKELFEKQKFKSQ
UniProt O95415: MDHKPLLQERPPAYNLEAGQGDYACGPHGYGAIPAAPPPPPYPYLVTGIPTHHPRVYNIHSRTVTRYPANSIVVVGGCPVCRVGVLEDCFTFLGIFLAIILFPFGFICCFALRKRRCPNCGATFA
UniProt Q8IXM2, whole entry, looked up: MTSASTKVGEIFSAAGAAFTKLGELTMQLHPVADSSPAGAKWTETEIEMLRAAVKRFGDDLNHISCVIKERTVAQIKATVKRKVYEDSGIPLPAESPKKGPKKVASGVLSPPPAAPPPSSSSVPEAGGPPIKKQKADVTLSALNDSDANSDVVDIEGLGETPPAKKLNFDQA
UniProt Q9HB09: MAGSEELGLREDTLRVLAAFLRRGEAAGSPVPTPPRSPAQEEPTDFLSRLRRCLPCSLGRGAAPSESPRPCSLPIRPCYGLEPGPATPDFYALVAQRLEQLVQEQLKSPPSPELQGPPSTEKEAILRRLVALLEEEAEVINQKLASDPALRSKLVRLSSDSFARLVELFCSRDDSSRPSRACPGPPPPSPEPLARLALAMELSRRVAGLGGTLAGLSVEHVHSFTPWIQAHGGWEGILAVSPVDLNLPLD
UniProt Q9HCU9: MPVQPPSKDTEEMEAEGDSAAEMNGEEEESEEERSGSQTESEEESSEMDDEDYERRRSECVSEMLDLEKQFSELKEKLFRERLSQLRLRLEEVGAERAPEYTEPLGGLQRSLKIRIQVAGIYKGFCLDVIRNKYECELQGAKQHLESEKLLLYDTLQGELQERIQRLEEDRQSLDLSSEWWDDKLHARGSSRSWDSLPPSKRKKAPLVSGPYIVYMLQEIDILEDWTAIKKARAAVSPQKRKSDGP
UniProt Q5T6C5: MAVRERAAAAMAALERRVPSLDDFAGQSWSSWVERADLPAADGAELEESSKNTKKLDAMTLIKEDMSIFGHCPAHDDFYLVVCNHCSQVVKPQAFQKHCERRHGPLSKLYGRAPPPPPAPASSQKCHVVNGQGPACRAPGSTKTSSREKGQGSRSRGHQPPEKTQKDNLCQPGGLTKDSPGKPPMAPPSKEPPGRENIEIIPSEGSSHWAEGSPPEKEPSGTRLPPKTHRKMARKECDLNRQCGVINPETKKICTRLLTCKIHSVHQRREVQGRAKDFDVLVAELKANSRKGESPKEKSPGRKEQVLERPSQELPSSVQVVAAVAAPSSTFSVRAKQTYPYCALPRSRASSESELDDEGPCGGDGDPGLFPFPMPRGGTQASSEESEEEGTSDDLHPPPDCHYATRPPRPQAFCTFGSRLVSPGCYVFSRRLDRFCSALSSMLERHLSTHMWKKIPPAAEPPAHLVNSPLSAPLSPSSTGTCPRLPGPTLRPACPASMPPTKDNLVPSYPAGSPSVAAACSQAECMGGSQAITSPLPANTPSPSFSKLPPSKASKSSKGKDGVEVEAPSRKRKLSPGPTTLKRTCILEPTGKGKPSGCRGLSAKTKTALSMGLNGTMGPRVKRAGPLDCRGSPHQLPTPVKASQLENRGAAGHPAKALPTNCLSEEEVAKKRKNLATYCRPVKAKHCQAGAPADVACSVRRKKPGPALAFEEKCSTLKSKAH
UniProt Q9NZS9: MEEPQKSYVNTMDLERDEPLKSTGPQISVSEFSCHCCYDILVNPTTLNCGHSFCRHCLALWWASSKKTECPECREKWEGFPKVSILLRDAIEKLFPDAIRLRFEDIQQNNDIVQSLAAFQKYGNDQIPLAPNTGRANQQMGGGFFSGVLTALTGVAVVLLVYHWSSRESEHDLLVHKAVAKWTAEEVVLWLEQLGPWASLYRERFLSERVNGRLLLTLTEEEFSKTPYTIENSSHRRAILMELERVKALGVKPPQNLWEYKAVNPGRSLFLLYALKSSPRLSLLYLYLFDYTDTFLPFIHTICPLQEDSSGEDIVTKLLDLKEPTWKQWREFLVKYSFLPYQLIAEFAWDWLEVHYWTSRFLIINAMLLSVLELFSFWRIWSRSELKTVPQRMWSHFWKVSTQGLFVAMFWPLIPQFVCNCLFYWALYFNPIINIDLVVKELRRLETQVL
UniProt O43505: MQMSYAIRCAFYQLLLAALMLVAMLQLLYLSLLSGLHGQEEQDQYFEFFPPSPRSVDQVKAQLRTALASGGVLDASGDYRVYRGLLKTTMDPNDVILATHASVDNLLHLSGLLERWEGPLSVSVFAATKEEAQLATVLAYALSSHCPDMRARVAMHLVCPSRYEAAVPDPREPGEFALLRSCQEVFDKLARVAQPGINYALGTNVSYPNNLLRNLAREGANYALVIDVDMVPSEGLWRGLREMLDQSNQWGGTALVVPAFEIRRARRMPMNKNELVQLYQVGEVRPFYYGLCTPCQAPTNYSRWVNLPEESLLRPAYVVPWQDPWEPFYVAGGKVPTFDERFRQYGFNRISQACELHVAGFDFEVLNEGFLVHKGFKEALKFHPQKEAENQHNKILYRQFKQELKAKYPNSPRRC

[2] = compound: CC1=C(C=C(C=C1)NC(=O)C2=CC(=CC=C2)N(C)C)NC(=O)C3=CC=C(C=C3)O
In short: as §1

vemurafenib = compound: CCCS(=O)(=O)Nc1ccc(F)c(C(=O)c2c[nH]c3ncc(-c4ccc(Cl)cc4)cc23)c1F [vemurafenib]
In short: as §1

givinostat = compound: CCN(CC)Cc1ccc2cc(COC(=O)Nc3ccc(C(=O)NO)cc3)ccc2c1 [givinostat]
In short: as §1

barasertib = compound: CCN(CCCOc1ccc2c(Nc3cc(CC(=O)Nc4cccc(F)c4)[nH]n3)ncnc2c1)CCOP(=O)(O)O [barasertib]
In short: as §1

[3] = compound: CC[C@@H]1C(=O)N(C)c2cnc(Nc3ccc(C(=O)NC4CCN(C)CC4)cc3OC)nc2N1C1CCCC1
In short: as §1

[4] = compound: CC[C@H](C)N1C=C(C2=C(C=C(C=C21)C3=CN=C(C=C3)N4CCNCC4)C(=O)NCC5=C(C=C(NC5=O)C)C)C
In short: as §1

[5] = compound: CN(C)CC(=O)Nc1ccc2[nH]c(=O)c3ccccc3c2c1
In short: as §1

[6] = compound: CC1=NC(=CC=C1)C2=C(N=C(N2)C(C)(C)C)C3=CC4=NC=CN=C4C=C3
In short: as §1

[7] = compound: CCCc1cc(C)[nH]c(=O)c1CNC(=O)c1cc(-c2ccnc(N3CCN(C)CC3)c2)cc2c1cnn2C(C)C
In short: as §1

rosiglitazone = compound: CN(CCOC1=CC=C(C=C1)C[C@H]2C(=O)NC(=O)S2)C3=CC=CC=N3 (racemic) [rosiglitazone]
In short: as §1

Nexturastat A = compound: CCCCN(Cc1ccc(C(=O)NO)cc1)C(=O)Nc1ccccc1 [Nexturastat A]
In short: as §1

epoxomicin = compound: CC[C@H](C)[C@@H](C(=O)N[C@@H]([C@@H](C)O)C(=O)N[C@@H](CC(C)C)C(=O)[C@]1(CO1)C)NC(=O)[C@H]([C@@H](C)CC)N(C)C(=O)C [epoxomicin]
In short: as §1

[8] = compound: CCn1c(C(=O)N(C2CC2)C2CC2)cc2c3c(ncn3C)c(Nc3cc(C)n(C)n3)nc21
In short: as §1

[9] = compound: CN1C2=C(C3=C1C(=O)N(N=C3)CC4=CC(=CC=C4)N)SC(=C2)S(=O)C
In short: as §1

[10] = compound: CC1=CC=C(C=C1)SC2=C3C=C(SC3=CN=C2)C(=O)N
In short: as §1

[11] = compound: CCCS(=O)(=O)Nc1ccc(F)c(C(=O)c2c[nH]c3ncc(Cl)cc23)c1F
In short: as §1

volasertib = compound: CC[C@@H]1C(=O)N(C)c2cnc(Nc3ccc(C(=O)N[C@H]4CC[C@H](N5CCN(CC6CC6)CC5)CC4)cc3OC)nc2N1C(C)C [volasertib]
In short: as §1

[12] = compound: CCn1cc(-c2ccnc3[nH]c(-c4cccc(CN(C)C)c4)cc23)c(-c2ccc(NC(=O)N(C)C)cc2)n1
In short: as §1

[13] = compound: CN1CCC(CNc2ccc3ncc(-c4cccc(OC(F)(F)F)c4)n3n2)CC1
In short: as §1

Target	log2 fold change [1]	log2 fold change [2]	log2 fold change (vemurafenib)	log2 fold change (givinostat)	log2 fold change (barasertib)	log2 fold change [3]	log2 fold change [4]	log2 fold change [5]	log2 fold change [6]	log2 fold change [7]	log2 fold change (rosiglitazone)	log2 fold change (Nexturastat A)	log2 fold change (epoxomicin)	log2 fold change [8]	log2 fold change [9]	log2 fold change [10]	log2 fold change [11]	log2 fold change (volasertib)	log2 fold change [12]	log2 fold change [13]
AZI2 (UniProt Q9H6S1)	inactive: -0.091	inactive: 0.045	inactive: 0.047	inactive: 0.028	inactive: -0.023	inactive: -0.021	inactive: -0.063	inactive: 0.062	–	–	–	–	–	–	–	–	–	–	–	–
BPIFA1 (UniProt Q9NP55)	inactive: -0.159	inactive: 0.218	–	–	inactive: 1.7	inactive: -0.365	inactive: 0.787	–	inactive: -0.019	inactive: 0.054	inactive: -0.416	–	–	–	–	–	–	–	–	–
BCOR (UniProt Q6W2J9)	inactive: -0.264	–	inactive: -0.231	inactive: 0.092	inactive: 0.023	–	–	inactive: -0.159	inactive: -0.161	–	inactive: 0.035	inactive: 0.143	inactive: -0.225	inactive: 0.079	inactive: -0.08	–	–	–	–	–
BORA (UniProt Q6PGQ7)	inactive: -0.281	–	–	–	inactive: -0.014	–	–	–	–	–	inactive: -0.332	inactive: 0.425	inactive: -0.015	–	–	–	–	–	–	–
BRAF (UniProt P15056)	inactive: 0.15	–	inactive: 0.148	inactive: -0.031	inactive: 0.022	inactive: 0	inactive: 0.043	inactive: 0.036	inactive: -0.01	inactive: -0.049	–	inactive: -0.053	inactive: 0.04	–	inactive: -0.039	inactive: 0.02	inactive: 0.144	inactive: -0.097	inactive: 0.029	inactive: -0.07
AURKAIP1 (UniProt Q9NWT8)	inactive: -0.06	inactive: -0.039	inactive: -0.099	inactive: -0.018	–	inactive: 0.182	–	inactive: -0.078	–	inactive: 0.082	–	inactive: 0.315	inactive: -0.14	inactive: -0.047	inactive: 0.271	–	–	–	–	–
BCAS1 (UniProt O75363)	inactive: 0.006	inactive: 0.247	inactive: -0.035	inactive: -0.043	inactive: -0.115	inactive: 0.085	inactive: -0.09	inactive: -0.061	–	inactive: -0.102	inactive: 0.151	inactive: -0.097	inactive: 0.054	inactive: -0.021	inactive: -0.074	inactive: 0.014	inactive: -0.04	inactive: 0.031	inactive: 0.052	inactive: -0.029
ATRN (UniProt O75882)	inactive: 0.037	–	inactive: -0.026	inactive: 0.026	inactive: -0.09	inactive: 0.029	inactive: -0.019	inactive: -0.01	inactive: -0.061	inactive: -0.003	–	inactive: -0.135	inactive: 0.063	–	inactive: 0.095	inactive: -0.034	inactive: 0.054	inactive: -0.094	inactive: 0.004	inactive: 0.121
B2M (UniProt P61769)	inactive: 0.065	inactive: -0.099	inactive: -0.021	inactive: -0.027	inactive: -0.044	inactive: 0.05	inactive: -0.016	inactive: -0.049	–	inactive: 0.016	inactive: -0.036	inactive: -0.005	inactive: -0.026	inactive: 0.036	inactive: -0.059	inactive: 0.021	inactive: 0.003	inactive: 0.006	inactive: -0.017	inactive: 0.153
BRD4 (UniProt O60885)	inactive: 0.245	inactive: -0.272	inactive: 0.046	inactive: -0.252	inactive: 0.021	active: 1.89	inactive: -0.007	inactive: 0.169	–	inactive: 0.017	–	active: -0.451	inactive: 0.136	–	inactive: -0.09	inactive: 0.071	inactive: -0.003	active: 2.02	active: 0.597	inactive: -0.062
BLM (UniProt P54132)	inactive: 0.017	inactive: -0.058	inactive: -0.014	inactive: 0.047	inactive: 0.011	inactive: 0.064	inactive: 0.027	inactive: 0.066	inactive: 0.014	inactive: -0.055	inactive: 0.085	–	–	inactive: -0.007	inactive: 0.064	inactive: 0.032	inactive: 0.06	inactive: -0.199	–	–
BHMT (UniProt Q93088)	inactive: -0.034	–	–	–	–	–	–	–	–	–	–	–	–	–	inactive: 0.47	–	–	–	–	–
BRI3 (UniProt O95415)	–	–	–	–	inactive: -0.091	–	–	–	–	–	inactive: 0.136	–	–	–	–	–	–	–	–	–
BAP18 isoform 3 (UniProt Q8IXM2)	–	–	–	inactive: 0.025	–	–	–	–	–	inactive: 0.005	–	–	–	–	–	–	–	–	inactive: 0.028	inactive: 0.2
BCL2L12 (UniProt Q9HB09)	–	inactive: -0.115	inactive: 0.031	inactive: 0.051	inactive: 0.052	inactive: -0.029	inactive: -0.144	inactive: 0.09	–	inactive: 0.005	inactive: 0.009	inactive: -0.031	inactive: 0.485	inactive: -0.108	inactive: 0.107	inactive: 0.1	inactive: 0.07	inactive: -0.378	inactive: -0.068	inactive: 0.006
BRMS1 (UniProt Q9HCU9)	–	–	–	–	–	inactive: -0.034	–	–	–	inactive: 0.137	–	active: 0.512	inactive: -0.018	–	inactive: -0.092	–	–	–	inactive: 0.144	inactive: -0.124
ATXN7L2 (UniProt Q5T6C5)	–	–	–	–	–	–	–	–	–	–	–	inactive: -0.065	inactive: -0.197	–	–	–	–	–	–	–
BRAF, A0A2R8Y8E0	–	active: -1.03	–	inactive: -0.006	–	–	inactive: 0.047	–	inactive: -0.021	inactive: -0.078	–	–	–	–	–	–	–	–	–	–
AXIN1 (UniProt O15169)	–	–	inactive: 0.125	–	–	–	–	inactive: 0.005	–	–	–	–	–	–	–	–	–	–	inactive: -0.096	inactive: -0.233
BFAR (UniProt Q9NZS9)	–	–	inactive: -0.025	–	–	–	–	inactive: -0.047	–	inactive: -0.049	–	inactive: 0.025	inactive: 0.009	–	–	inactive: 0.044	inactive: 0.283	inactive: -0.054	–	–
B4GAT1 (UniProt O43505)	–	inactive: -0.004	inactive: -0.069	inactive: -0.018	inactive: -0.03	inactive: 0.337	inactive: -0.017	inactive: -0.157	inactive: 0.07	–	inactive: 0.058	inactive: 0.032	inactive: -0.022	inactive: 0.069	inactive: -0.034	inactive: -0.028	inactive: -0.046	inactive: 0.077	inactive: -0.406	inactive: 0.027

Given in CSV form: entries from further up.
Target,log2 fold change [1],log2 fold change [2],log2 fold change (vemurafenib),log2 fold change (givinostat),log2 fold change (barasertib),log2 fold change [3],log2 fold change [4],log2 fold change [5],log2 fold change [6],log2 fold change [7],log2 fold change (rosiglitazone),log2 fold change (Nexturastat A),log2 fold change (epoxomicin),log2 fold change [8],log2 fold change [9],log2 fold change [10],log2 fold change [11],log2 fold change (volasertib),log2 fold change [12],log2 fold change [13]
BLM (UniProt P54132),inactive: 0.017,inactive: -0.058,inactive: -0.014,inactive: 0.047,inactive: 0.011,inactive: 0.064,inactive: 0.027,inactive: 0.066,inactive: 0.014,inactive: -0.055,inactive: 0.085,–,–,inactive: -0.007,inactive: 0.064,inactive: 0.032,inactive: 0.06,inactive: -0.199,–,–
BHMT (UniProt Q93088),inactive: -0.034,–,–,–,–,–,–,–,–,–,–,–,–,–,inactive: 0.47,–,–,–,–,–

Reference: the supplement of paper PMC10849652
